Laboratory results reported in PMC2660438.
For at least one entry, the source does not settle the construct or the ends of the probe. Results from cells or extracts need not show a direct contact.

By UniProt entry, the sequences of proteins in these tests, tags left out.
UniProt Q04206, whole entry: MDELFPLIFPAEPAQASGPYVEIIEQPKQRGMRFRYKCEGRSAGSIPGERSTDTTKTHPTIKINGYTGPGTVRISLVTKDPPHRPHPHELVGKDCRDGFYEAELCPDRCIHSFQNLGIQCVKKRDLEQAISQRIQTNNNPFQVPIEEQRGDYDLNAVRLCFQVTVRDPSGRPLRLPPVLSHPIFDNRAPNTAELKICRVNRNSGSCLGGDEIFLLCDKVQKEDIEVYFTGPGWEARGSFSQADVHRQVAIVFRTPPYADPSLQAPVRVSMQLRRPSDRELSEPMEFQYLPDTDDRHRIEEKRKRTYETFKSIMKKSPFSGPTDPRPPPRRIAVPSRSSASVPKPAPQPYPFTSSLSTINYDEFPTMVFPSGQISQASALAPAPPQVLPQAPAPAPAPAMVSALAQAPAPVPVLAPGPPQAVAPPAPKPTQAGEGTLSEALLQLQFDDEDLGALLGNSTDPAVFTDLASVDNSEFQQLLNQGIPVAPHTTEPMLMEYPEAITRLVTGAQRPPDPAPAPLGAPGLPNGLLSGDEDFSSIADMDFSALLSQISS

Target: NF-kB p65 (RelA) in TNFa-treated A549 nuclear extract (UniProt Q04206)
Experiment: EMSA, p65 antibody supershift
Conditions: TNFa 15 min extract, 50-fold self competitor competes; 2 ul nuclear extract with 1 ng 32P probe, 15 min at 37 C; 5% native PAGE; antibody preincubation 30 min at 37 C; protein in an extract; label: 32P end label (unlabeled as self competitor)

Does “GGGCCCGGGAAATTCCCCGGCG (double strand) [Optn. NF-kB]” bind?
Result: binds
